From paper PMC13385793
No constants are given. Whether binding was seen depends on the method and setting. In cells and extracts the contact can be indirect. A result given as binding can be weak or reduced; the word gives no strength.

By UniProt entry, the sequences of proteins in these tests, tags left out.
UniProt Q9ULX9: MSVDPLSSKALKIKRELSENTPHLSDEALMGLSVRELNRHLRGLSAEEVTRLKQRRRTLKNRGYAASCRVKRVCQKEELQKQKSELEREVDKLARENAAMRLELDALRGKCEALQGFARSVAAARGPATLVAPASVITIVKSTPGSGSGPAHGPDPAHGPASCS
UniProt O60675: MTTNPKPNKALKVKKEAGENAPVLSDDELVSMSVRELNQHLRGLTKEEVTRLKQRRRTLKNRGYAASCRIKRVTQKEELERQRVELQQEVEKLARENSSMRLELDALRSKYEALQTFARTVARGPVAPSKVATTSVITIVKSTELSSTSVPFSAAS

What was measured:
[1] = molecular target: MYC-DDK-tagged MAFF (overexpressed) (human) (UniProt Q9ULX9); experiment: co-IP; MAFG, MAFF and MAFK compared for co-IP with MITF, normalized co-IP efficiency (Supplementary Fig. 13j, k); cells not given
[2] = molecular target: MYC-DDK-tagged MAFK (overexpressed) (human) (UniProt O60675); experiment: as above

binding [1]: binds
binding [2]: binds
Substance: MITF (microphthalmia-associated transcription factor), endogenous (from UniProt O75030-9)
